The experiment addresses T1, striatal-enriched protein tyrosine phosphatase, STEP61 (mouse (endogenous in hippocampus)) (UniProt P54830).
T1 sequence: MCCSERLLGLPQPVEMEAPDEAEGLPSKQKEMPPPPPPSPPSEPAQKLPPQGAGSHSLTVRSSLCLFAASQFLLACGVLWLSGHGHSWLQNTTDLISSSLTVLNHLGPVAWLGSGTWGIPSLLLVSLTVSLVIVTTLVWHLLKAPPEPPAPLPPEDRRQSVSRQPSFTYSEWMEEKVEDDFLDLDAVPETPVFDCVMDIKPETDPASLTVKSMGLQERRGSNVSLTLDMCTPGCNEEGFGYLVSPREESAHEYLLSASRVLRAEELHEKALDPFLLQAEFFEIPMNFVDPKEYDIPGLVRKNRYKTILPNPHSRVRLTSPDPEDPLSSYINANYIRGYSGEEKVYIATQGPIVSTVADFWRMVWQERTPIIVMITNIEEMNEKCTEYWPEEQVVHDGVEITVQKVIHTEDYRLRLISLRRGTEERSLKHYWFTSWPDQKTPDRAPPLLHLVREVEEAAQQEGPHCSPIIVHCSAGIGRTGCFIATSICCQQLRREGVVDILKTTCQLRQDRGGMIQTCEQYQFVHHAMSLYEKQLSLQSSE
As to the kind of experiment: co-IP; anti-STEP (23E5) immunoprecipitation from WT mouse hippocampal synaptosomal fractions lysed in co-IP buffer (20 mM Tris-HCl pH 8, NaCl, 0.5% NP-40), overnight at 4 °C, protein A/G plus agarose; blots with selective antibodies; STEP KO lysates as control.

Sequences of proteins named here, by UniProt entry; tags and fusion partners are left off. Residues count along the entry.
UniProt P39688: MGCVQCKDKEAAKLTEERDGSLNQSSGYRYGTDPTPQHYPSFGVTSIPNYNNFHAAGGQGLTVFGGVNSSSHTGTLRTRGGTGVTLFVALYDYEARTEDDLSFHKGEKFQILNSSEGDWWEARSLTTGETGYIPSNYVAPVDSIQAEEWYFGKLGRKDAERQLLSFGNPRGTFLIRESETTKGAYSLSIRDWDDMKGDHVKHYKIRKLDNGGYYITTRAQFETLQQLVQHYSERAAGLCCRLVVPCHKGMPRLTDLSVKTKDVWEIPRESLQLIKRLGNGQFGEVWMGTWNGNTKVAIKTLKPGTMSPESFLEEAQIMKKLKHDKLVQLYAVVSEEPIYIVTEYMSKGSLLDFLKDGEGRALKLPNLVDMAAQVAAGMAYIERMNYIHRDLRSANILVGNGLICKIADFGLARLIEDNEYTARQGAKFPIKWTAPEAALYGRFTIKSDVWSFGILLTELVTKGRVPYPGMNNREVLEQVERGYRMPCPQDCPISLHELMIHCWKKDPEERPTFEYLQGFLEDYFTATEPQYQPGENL
UniProt Q01097, residues 27-1482: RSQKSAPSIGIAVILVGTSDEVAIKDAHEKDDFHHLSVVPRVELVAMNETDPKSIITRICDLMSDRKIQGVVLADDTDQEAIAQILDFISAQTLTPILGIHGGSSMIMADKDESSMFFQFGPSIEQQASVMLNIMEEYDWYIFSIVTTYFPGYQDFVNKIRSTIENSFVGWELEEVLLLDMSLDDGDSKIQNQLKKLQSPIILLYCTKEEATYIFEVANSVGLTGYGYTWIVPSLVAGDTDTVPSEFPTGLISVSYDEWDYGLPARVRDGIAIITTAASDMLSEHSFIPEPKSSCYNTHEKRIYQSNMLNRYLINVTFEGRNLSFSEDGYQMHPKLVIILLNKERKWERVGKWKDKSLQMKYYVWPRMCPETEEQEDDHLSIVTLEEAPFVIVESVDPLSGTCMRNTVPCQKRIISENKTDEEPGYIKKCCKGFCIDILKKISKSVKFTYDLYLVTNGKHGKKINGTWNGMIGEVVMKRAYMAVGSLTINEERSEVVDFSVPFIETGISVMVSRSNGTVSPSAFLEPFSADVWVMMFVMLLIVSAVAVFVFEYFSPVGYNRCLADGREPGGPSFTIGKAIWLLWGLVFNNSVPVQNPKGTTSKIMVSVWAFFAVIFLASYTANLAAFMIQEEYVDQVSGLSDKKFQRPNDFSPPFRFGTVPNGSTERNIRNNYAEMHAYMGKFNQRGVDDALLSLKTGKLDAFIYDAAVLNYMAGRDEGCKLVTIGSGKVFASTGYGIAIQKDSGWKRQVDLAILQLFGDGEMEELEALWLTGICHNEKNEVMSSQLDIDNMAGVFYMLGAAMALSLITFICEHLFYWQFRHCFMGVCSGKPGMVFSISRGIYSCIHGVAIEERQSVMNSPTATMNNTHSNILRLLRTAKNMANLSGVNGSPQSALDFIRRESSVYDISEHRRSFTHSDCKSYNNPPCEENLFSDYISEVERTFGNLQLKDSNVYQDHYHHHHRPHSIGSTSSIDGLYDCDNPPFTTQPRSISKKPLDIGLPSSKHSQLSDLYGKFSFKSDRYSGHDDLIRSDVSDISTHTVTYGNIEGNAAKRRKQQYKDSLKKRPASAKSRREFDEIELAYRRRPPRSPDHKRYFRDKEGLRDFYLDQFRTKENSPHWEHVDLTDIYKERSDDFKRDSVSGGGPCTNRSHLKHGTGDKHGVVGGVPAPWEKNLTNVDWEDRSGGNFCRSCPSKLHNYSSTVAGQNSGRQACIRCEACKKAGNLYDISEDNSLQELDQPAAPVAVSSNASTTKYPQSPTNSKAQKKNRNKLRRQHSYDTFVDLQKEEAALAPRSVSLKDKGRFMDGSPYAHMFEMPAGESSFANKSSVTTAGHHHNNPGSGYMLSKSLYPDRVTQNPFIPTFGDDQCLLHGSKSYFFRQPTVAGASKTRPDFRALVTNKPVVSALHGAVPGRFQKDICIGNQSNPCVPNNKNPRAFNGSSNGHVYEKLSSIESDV

These are yes or no findings as the source states them, for the method shown. Binding seen in cells or lysates may run through a third protein. Some results given as binding are weak or reduced against the parent protein; the word gives no strength.

For the substance “Fyn (from UniProt P39688 1-537) (enzyme)”, the binding result is reported as “binds”.

With “NMDA receptor subunit GluN2B (from UniProt Q01097 27-1482)”, the binding result is on record as “binds”.

With “NMDA receptor subunit GluN2A (from UniProt P35436 23-1464)”, the binding entry was “binds”.

The values above are taken from publication PMC5114553.
